Test results: PubChem BioAssay AID250 (DTP/NCI, 2004)
The list shows only some results of the screen, not a fair sample: it gathers tests that were run many times, whatever their T/C, doses with no T/C, and many T/C values between a quarter and a half above the control. Other doses and runs of a compound stand elsewhere. T/C is the treated group as % of the vehicle group. Some entries give survivors of the animals treated and no T/C: the source files T/C as zero there, which appears to mark a toxic dose or a test without result, not a measured value. Some survivor counts are full or nearly so, which does not show that the dose was tolerated: the source hardly ever lists a survival T/C far under the control, and the zero likely stands for such cases as well. Survivors were counted at the toxicity check, usually on the fifth day, unless a day is given; later deaths do not show. Schedules are NCI's codes, read here as Q, the interval in days (D) or hours (H), X, the number of doses. Some schedule codes hold Z or #, which are not explained here. Some structures stand for samples that the source files as different forms (salt, stereo form or complex); doses refer to the form tested. Signs of the kind (2×) say how often a value occurs here. Some entries were tested several times; the values are given in rising order.

Tested on: BDF1 mice, L1210 leukemia sc, survival T/C
Test: NCI In Vivo Anticancer Drug Screen. Data for tumor model L1210 Leukemia (subcutaneous) in B6D2F1 (BDF1) mice
Conditions: higher T/C = longer survival
Procedure: The antitumor activity of compounds was measured in mice bearing transplantable tumors. Survival or tumor size were measured and the results are expressed as the measurement made in the treated group (T) divided by the measurement made in the vehicle treated control group (C). The tumor model used in this assay is L1210 Leukemia (subcutaneous) in B6D2F1 (BDF1) mice

[1] = T/C endpoint: median survival time, dose: 39.0 mg/kg/injection, schedule: Q01DX Z (sc), vehicle: methylcellulose (MC)
[2] = T/C endpoint: median survival time, dose: 108.0 mg/kg/injection, schedule: Q01DX Z (sc), vehicle: methylcellulose (MC)
[3] = T/C endpoint: median survival time, dose: 180.0 mg/kg/injection, schedule: Q01DX Z (sc), vehicle: methylcellulose (MC)
[4] = T/C endpoint: median survival time, dose: 300.0 mg/kg/injection, schedule: Q01DX Z (sc), vehicle: methylcellulose (MC)
[5] = T/C endpoint: median survival time, dose: 500.0 mg/kg/injection, schedule: Q01DX Z (sc), vehicle: methylcellulose (MC)
[6] = T/C endpoint: median survival time, dose: 65.0 mg/kg/injection, schedule: Q01DX Z (sc), vehicle: methylcellulose (MC)
[7] = T/C endpoint: median survival time, dose: 23.0 mg/kg/injection, schedule: Q01DX Z (sc), vehicle: methylcellulose (MC)
[8] = T/C endpoint: median survival time, dose: 108.0 mg/kg/injection, schedule: Q01DX Z (sc), vehicle: saline
[9] = T/C endpoint: median survival time, dose: 360.0 mg/kg/injection, schedule: Q01DX Z (sc), vehicle: water
[10] = T/C endpoint: median survival time, dose: 600.0 mg/kg/injection, schedule: Q01DX Z (sc), vehicle: water
[11] = T/C endpoint: median survival time, dose: 1000.0 mg/kg/injection, schedule: Q01DX Z (sc), vehicle: water
[12] = T/C endpoint: median survival time, dose: 8.4 mg/kg/injection, schedule: Q01DX Z (sc), vehicle: methylcellulose (MC)

In the case of `CCC(=O)O[C@H]1CC[C@H]2[C@@H]3CC[C@H]4CC(=O)[C@H](C)C[C@]4(C)[C@H]3CC[C@]12C`, the survivor count [1] is reported as 5 of 10, the survivor count [2] is reported as 1 of 10 and the survivor count [3] is reported as 1 of 10. The survivor count [4] was 1 of 10 and 5 of 10, the survivor count [5] was 3 of 10 and 6 of 10 and the survivor count (T/C endpoint: median survival time, dose: 833.0 mg/kg/injection, schedule: Q01DX Z (sc), vehicle: methylcellulose (MC)) was 0 of 10.
For `O=C(NP(=O)(N1CC1)N1CC1)OCc1ccccc1`, the survivor count (T/C endpoint: median survival time, dose: 1.08 mg/kg/injection, schedule: Q01DX Z (sc), vehicle: water) was 6 of 10, the survivor count (T/C endpoint: median survival time, dose: 1.8 mg/kg/injection, schedule: Q01DX Z (sc), vehicle: water) was 5 of 10 and the survivor count (T/C endpoint: median survival time, dose: 5.0 mg/kg/injection, schedule: Q01DX Z (sc), vehicle: water) was 3 of 10. The survivor count (T/C endpoint: median survival time, dose: 8.4 mg/kg/injection, schedule: Q01DX Z (sc), vehicle: water) was 6 of 10, the survivor count (T/C endpoint: median survival time, dose: 39.0 mg/kg/injection, schedule: Q01DX Z (sc), vehicle: water) was 6 of 10 and the survivor count (T/C endpoint: median survival time, dose: 65.0 mg/kg/injection, schedule: Q01DX Z (sc), vehicle: water) was 4 of 10.
For `COC1=C(N)C(=O)c2nc(-c3nc(C(=O)O)c(C)c(-c4ccc(OC)c(OC)c4O)c3N)ccc2C1=O`, the survivor count (T/C endpoint: median survival time, dose: 0.8 mg/kg/injection, schedule: Q01DX009 (ip), vehicle: water) was 5 of 10, the survivor count (T/C endpoint: median survival time, dose: 0.8 mg/kg/injection, schedule: Q01DX009 (sc), vehicle: water) was 9 of 10 and the survivor count (T/C endpoint: median survival time, dose: 8.0 mg/kg/injection, schedule: Q01DX009 (sc), vehicle: water) was 10 of 10.
With `C=CC(COC(C)=O)N1CC1` (stereo not drawn) the survivor count (T/C endpoint: median survival time, dose: 4.7 mg/kg/injection, schedule: Q01DX Z (sc), vehicle: saline) was 1 of 10, the survivor count (T/C endpoint: median survival time, dose: 7.8 mg/kg/injection, schedule: Q01DX Z (sc), vehicle: saline) was 1 of 10 and the survivor count (T/C endpoint: median survival time, dose: 13.0 mg/kg/injection, schedule: Q01DX Z (sc), vehicle: saline) was 1 of 10. The survivor count (T/C endpoint: median survival time, dose: 22.0 mg/kg/injection, schedule: Q01DX Z (sc), vehicle: saline) was 1 of 10 and 6 of 10, the survivor count (T/C endpoint: median survival time, dose: 36.0 mg/kg/injection, schedule: Q01DX Z (sc), vehicle: saline) was 0 of 10 and the survivor count (T/C endpoint: median survival time, dose: 60.0 mg/kg/injection, schedule: Q01DX Z (sc), vehicle: saline) was 3 of 10. The survivor count (T/C endpoint: median survival time, dose: 100.0 mg/kg/injection, schedule: Q01DX Z (sc), vehicle: saline) was 0 of 10.
For `CC/C(=C(/CC)c1ccc(O)cc1)c1ccc(O)cc1`, the survivor count [6] was 5 of 10, the survivor count [3] was 6 of 10 and the survivor count [5] was 6 of 10.
With `CC[C@H](c1ccc(O)cc1)[C@@H](CC)c1ccc(O)cc1` the survivor count [3] was 6 of 10, the survivor count [4] was 6 of 10 and the survivor count [5] was 5 of 10.
With `CS(=O)(=O)OCCCCOS(C)(=O)=O` the survivor count [1] was 6 of 10, the survivor count (T/C endpoint: median survival time, dose: 100.0 mg/kg/injection, schedule: Q01DX009 (ip), vehicle: Klucel (hydroxypropylcellulose) (HPC)) was 6 of 10 and the survivor count (T/C endpoint: median survival time, dose: 100.0 mg/kg/injection, schedule: Q01DX009 (sc), vehicle: Klucel (hydroxypropylcellulose) (HPC)) was 9 of 10. For the same molecule, the survivor count (T/C endpoint: median survival time, dose: 216.0 mg/kg/injection, schedule: Q01DX Z (sc), vehicle: methylcellulose (MC)) was 2 of 10, the survivor count (T/C endpoint: median survival time, dose: 360.0 mg/kg/injection, schedule: Q01DX Z (sc), vehicle: methylcellulose (MC)) was 0 of 10 and the survivor count (T/C endpoint: median survival time, dose: 600.0 mg/kg/injection, schedule: Q01DX Z (sc), vehicle: methylcellulose (MC)) was 0 of 10.
With `CC1(C)N=C(N)N=C(N)N1c1cccc(Br)c1` the survivor count [7] was 3 of 10, the survivor count [2] was 6 of 10 and the survivor count [8] was 4 of 8. The survivor count [3] was 2 of 10, the survivor count (T/C endpoint: median survival time, dose: 180.0 mg/kg/injection, schedule: Q01DX Z (sc), vehicle: saline) was 0 of 8 and 2 of 8 and the survivor count (T/C endpoint: median survival time, dose: 300.0 mg/kg/injection, schedule: Q01DX Z (sc), vehicle: saline) was 0 of 8.
In the case of `Nc1nc2c(ncn2C2CC(O)C(CO)O2)c(=O)[nH]1` (stereo not drawn), the survivor count (T/C endpoint: median survival time, dose: 130.0 mg/kg/injection, schedule: Q01DX Z (sc), vehicle: water) is reported as 2 of 8, the survivor count (T/C endpoint: median survival time, dose: 216.0 mg/kg/injection, schedule: Q01DX Z (sc), vehicle: water) is reported as 0 of 8 and the survivor count [9] is reported as 2 of 8. The survivor count [10] was 0 of 8 and the survivor count [11] was 0 of 8.
In the case of `S=c1nc[nH]c2c1ncn2C1C=CCCC1` (stereo not drawn), the survivor count [12] is reported as 6 of 10, the survivor count [1] is reported as 6 of 10 and the survivor count [6] is reported as 6 of 10. For the same molecule, the survivor count [3] was 6 of 10 and the survivor count [4] was 3 of 10.
In the case of `O=C(O)c1cc(=O)[nH]c(=O)[nH]1`, the survivor count (T/C endpoint: median survival time, dose: 39.0 mg/kg/injection, schedule: Q01DX Z (sc), vehicle: saline) is reported as 6 of 10 and the survivor count [8] is reported as 6 of 10.
With `O=C(c1ccc(C(=O)N2CC2)cc1)N1CC1` the survivor count (T/C endpoint: median survival time, dose: 1.8 mg/kg/injection, schedule: Q01DX Z (sc), vehicle: methylcellulose (MC)) was 4 of 10, the survivor count (T/C endpoint: median survival time, dose: 3.0 mg/kg/injection, schedule: Q01DX Z (sc), vehicle: methylcellulose (MC)) was 4 of 10 and the survivor count (T/C endpoint: median survival time, dose: 5.0 mg/kg/injection, schedule: Q01DX Z (sc), vehicle: methylcellulose (MC)) was 5 of 10. The survivor count [12] was 3 of 10, the survivor count (T/C endpoint: median survival time, dose: 14.0 mg/kg/injection, schedule: Q01DX Z (sc), vehicle: methylcellulose (MC)) was 5 of 10 and the survivor count [7] was 4 of 10. For the same molecule, the survivor count [1] was 2 of 10.
In the case of `C[C@]12C[C@H](O)[C@H]3[C@@H](CCC4=CC(=O)CC[C@@]43C)[C@@H]1CC[C@@H]2C(=O)CO`, the survivor count [7] is reported as 3 of 10, the survivor count [1] is reported as 3 of 10 and the survivor count [6] is reported as 4 of 10. For the same molecule, the survivor count [2] was 2 of 10, the survivor count [3] was 1 of 10 and the survivor count [4] was 2 of 10. The survivor count [5] was 1 of 10.
For `COc1cc(NS(C)(=O)=O)ccc1Nc1c2ccccc2nc2c(C)cccc12`, the survivor count (T/C endpoint: mean survival time, dose: 10.0 mg/kg/injection, schedule: Q01DX009 (ip), vehicle: saline) was 10 of 10 and the survivor count (T/C endpoint: mean survival time, dose: 20.0 mg/kg/injection, schedule: Q01DX009 (ip), vehicle: saline) was 10 of 10 (2×).
`COC(=O)c1[nH]c(=O)[nH]c(=O)c1F` was tested, and the survivor count (T/C endpoint: median survival time, dose: 2.5 mg/kg/injection, schedule: Q01DX Z (sc), vehicle: methylcellulose (MC)) was 3 of 8.
For `CCN(CC)C(=O)c1cccnc1`, the survivor count [9] was 2 of 10, the survivor count [10] was 0 of 10 and the survivor count [11] was 0 of 10.
In the case of `O=c1[nH]cc(N(CCCl)CCCl)c(=O)[nH]1`, the survivor count (T/C endpoint: median survival time, dose: 14.0 mg/kg/injection, schedule: Q01DX Z (sc), vehicle: other) is reported as 9 of 10.
